Values quoted from earlier work as cited in US20220175791A1, “Methods for Predicting Neisseria Spp. Susceptibility to Cefixime” (priority 2019, published 2022).
Where “and” joins values, the source holds several entries; their conditions need not be identical. Equal values may be shown once. Read-outs that look alike come from different tables or passages of the source. At least one compound was matched to its structure with a doubt left.

Assays:
[1] = test system: Neisseria gonorrhoeae strains
[2] = test system: Neisseria gonorrhoeae strains with modified penA

## C=CC1=C(C(=O)O)N2C(=O)[C@@H](NC(=O)/C(=N\OCC(=O)O)c3csc(N)n3)[C@H]2SC1 [cefixime, Cefixime]
[1]; WHO reference strain K, penA 10, mosaic, I312M, V316T, N512Y, G545S
  CFX MIC: 0.5 mg/L
[1]; WHO reference strain L, penA 7, non-mosaic, D345ins, A501S, G542S, P551S
  CFX MIC: 0.25 mg/L
[1]; clinical isolate (Australia 2013), penA 64, mosaic, A311V, I312M, V316T, T483S, N512Y, G545S
  CFX MIC: 2 mg/L
[1]; clinical isolate (Canada), mosaic, penA type not reported, I312M, V316T
  CFX MIC: 0.25 mg/L
[1]; clinical isolate (France 2010), penA 42, mosaic, I312M, V316T, A501P, N512Y, G545S
  CFX MIC: 2 mg/L and 4 mg/L
[1]; clinical isolate (Republic of Georgia), penA 34+, mosaic, I312M, V316T, N512Y, G545S
  CFX MIC: 0.5 mg/L
[1]; clinical isolate (Spain), penA 34+, mosaic, I312M, V316T, A501P, N512Y, G545S
  CFX MIC: 1.5 mg/L
[1]; clinical isolate, penA 37, mosaic, A311V, I312M, V316P, T483S, N512Y, G545S
  CFX MIC: 4 mg/L
[1]; clinical isolates (Italy), mosaic, penA type not reported, amino acid sequence not reported
  CFX MIC: >0.125 mg/L
[1]; clinical isolates (Japan 2011-2012), penA 34+, mosaic, I312M, V316T, N512Y, G545S, P551S
  CFX MIC: 0.25 mg/L
[1]; clinical isolates, penA 5+, non-mosaic, D345ins, A501V, G542S
  CFX MIC: 0.125 mg/L
[1]; clinical isolates, penA 5+, non-mosaic, D345ins, G542S
  CFX MIC: 0.5 mg/L
[1]; clinical isolates, penA 5, non-mosaic, D345ins, G542S
  CFX MIC: 0.125 mg/L
[1]; clinical isolates, penA 9, non-mosaic, D345ins, P551L
  CFX MIC: 0.125 mg/L
[1]; clinical isolates, penA 12+, non-mosaic, D345ins, A501T, P551L
  CFX MIC: ≥0.125 mg/L
[1]; clinical isolates, penA 12+, non-mosaic, D345ins, P551S
  CFX MIC: ≥0.125 mg/L
[1]; clinical isolates, penA 12, non-mosaic, D345ins, P551S
  CFX MIC: 0.5 mg/L
[1]; clinical isolates, penA 13+, non-mosaic, D345ins, A501V, N512Y, P551S
  CFX MIC: 0.25 mg/L
[1]; clinical isolates, penA 13+, non-mosaic, D345ins, A501V, P551S
  CFX MIC: 0.125 mg/L
[1]; clinical isolates, penA 18, non-mosaic, D345ins, A501T, G542S
  CFX MIC: 0.25 mg/L and 0.125 mg/L
[1]; clinical isolates, penA 21, non-mosaic, D345ins, A501V
  CFX MIC: 0.125 mg/L
[1]; clinical isolates, penA 30, mosaic, I312M, V316T, T483V, N512Y, G545S
  CFX MIC: 0.5 mg/L and 1 mg/L
[1]; clinical isolates, penA 31, mosaic, I312M, V316T, N512Y, G545S
  CFX MIC: 0.25 mg/L
[1]; clinical isolates, penA 32, mosaic, I312M, V316T, N512Y, G545S
  CFX MIC: 0.25 mg/L and 0.5 mg/L
[1]; clinical isolates, penA 34+, mosaic, I312M, V316T, A501V, N512Y, G545S
  CFX MIC: 0.125 mg/L
[1]; clinical isolates, penA 35, mosaic, I312M, V316T
  CFX MIC: 0.25 mg/L
[1]; clinical isolates, penA 60, mosaic, A311V, I312M, V316T, T483S, N512Y, G545S
  CFX MIC: 1 mg/L and 2 mg/L
[1]; clinical isolates, penA type 1~9, non-mosaic, D345ins (A501V only in penA 7&8, G542S only in penA 4, 5, 7, 8)
  CFX MIC: 0.125 mg/L
[1]; modified laboratory strain (ref 50), penA 10+, mosaic, A311V, I312M, V316P, N512Y, G545S
  CFX MIC: >0.5 mg/L
[1]; modified laboratory strain (ref 50), penA 10+, mosaic, A311V, I312M, V316P, T483S, N512Y, G545S
  CFX MIC: >1.5 mg/L
[1]; modified laboratory strain (ref 50), penA 10+, mosaic, A311V, I312M, V316T, T483S, N512Y, G545S
  CFX MIC: 0.25 mg/L
[1]; modified laboratory strain (ref 50), penA 10+, mosaic, I312M, V316P, N512Y, G545S
  CFX MIC: 0.25 mg/L
[1]; modified laboratory strain (ref 50), penA 10+, mosaic, I312M, V316T, N512Y, G545S
  CFX MIC: 0.125 mg/L
[1]; modified laboratory strain, penA 10+, mosaic, I312M, V316T, A501P, N512Y, G545S
  CFX MIC: 0.5 mg/L
[1]; modified laboratory strain, penA 10+, mosaic, I312M, V316T, A501R, N512Y, G545S
  CFX MIC: 0.5 mg/L
[1]; modified laboratory strain, penA 10+, mosaic, I312M, V316T, A501S, N512Y, G545S
  CFX MIC: 0.25 mg/L
[1]; modified laboratory strain, penA 10+, mosaic, I312M, V316T, A501T, N512Y, G545S
  CFX MIC: 0.25 mg/L
[1]; modified laboratory strain, penA 10+, mosaic, I312M, V316T, A501V, N512Y, G545S
  CFX MIC: 0.25 mg/L
[1]; modified laboratory strain, penA 10, mosaic, I312M, V316T, N512Y, G545S
  CFX MIC: >0.25 mg/L and 0.5 mg/L
[1]; modified laboratory strain, penA 34+, mosaic, I312M, V316T, A501S, N512Y, G545S
  CFX MIC: >0.5 mg/L
[1]; modified laboratory strain, penA 34+, mosaic, I312M, V316T, N512Y, G545S, P551S
  CFX MIC: >0.35 mg/L
[1]; modified laboratory strain, penA 37, mosaic, A311V, I312M, V316P, T483S, N512Y, G545S
  CFX MIC: 1.6 mg/L
[2]; 528-581-wild-type penA10 chimera with G545S re-introduced
  cefixime MIC: 0.05 mg/L
[2]; I312M, V316T and G545S together introduced into a wild-type penA
  change of cefixime MIC: only minimally elevated
[2]; penA10 strain before reversion
  cefixime MIC: about 0.125 μg/mL
[2]; penA10 with Y512N reversion alone
  cefixime MIC: about 0.06 μg/mL
[2]; penA10 with reversion of region 489-528 (N512Y and 2 other mutations) to wild-type
  cefixime MIC: about 0.05 μg/mL
